This is an account of results in paper PMC11637765.

Assay [1] addresses GWY10 (Grain Weight and Yield on Chromosome 10), a conserved actin protein, as the split-LUC fusion (rice (Oryza sativa L.)) (UniProt A3C6D7). The experiment in a line: split reporter; split-LUC (split luciferase complementation) assay, screen of GWY10 against cyclin-related proteins; conditions not shown (supplementary methods).
The target of assay [2] is GWY10 (Grain Weight and Yield on Chromosome 10), a conserved actin protein, as used in the pull-down assay (rice (Oryza sativa L.)) (UniProt A3C6D7). Nature of the assay: pull-down; pull-down assay of GWY10 and CDKB2; which protein was the bait and the conditions were not shown (supplementary methods).

No constants are given. Whether binding was seen depends on the method and setting. Binding seen in cells or lysates may run through a third protein. Some results given as binding are weak or reduced against the parent protein; the word gives no strength. For some assays here: Sequences can lack the tags named with a protein.

B1: CDKB2, cyclin-dependent kinase, as the split-LUC fusion (protein, UniProt Q0J4I1 1-326)
chain: MAALHHQAAAAPVTTTTDGGELRAMDLYEKLEKVGEGTYGKVYKAREKATGRIVALKKTRLPEDDEGVPPTALREVSLLRMLSQDSHVVRLLDLKQGQNKEGQTILYLVFEYMDTDLKKFIRAHRQNLQKIPVPTVKILMYQLCKGVAFCHGRGVLHRDLKPHNLLMDRKTMALKIADLGLSRSFTVPLKKYTHEILTLWYRAPEVLLGAAHYSTPVDIWSVGCIFAELATNQPLFAGDSEVQQLLHIFKLLGTPNEQVWPGVSKLPNWHEYPQWNPSKVSDLVHGLDADALDLLEKMLQYEPSKRISAKKAMEHPYFNDVNKELY
Consider B1, for which the binding result in assay [1] is given as “binds”.

B2: CDKB2, cyclin-dependent kinase, as used in the pull-down assay (protein, UniProt Q0J4I1 1-326)
chain: B1 chain
In the case of B2, the binding entry in assay [2] was “binds”.
